No constants are given. Whether binding was seen depends on the method and setting. For part of these data: Binding seen in cells or lysates may run through a third protein. Some results given as binding are weak or reduced against the parent protein; the word gives no strength.

The chains behind the UniProt entries cited, without tags or fusion partners. Residues count along the entry.
UniProt P02787, residues 20-698: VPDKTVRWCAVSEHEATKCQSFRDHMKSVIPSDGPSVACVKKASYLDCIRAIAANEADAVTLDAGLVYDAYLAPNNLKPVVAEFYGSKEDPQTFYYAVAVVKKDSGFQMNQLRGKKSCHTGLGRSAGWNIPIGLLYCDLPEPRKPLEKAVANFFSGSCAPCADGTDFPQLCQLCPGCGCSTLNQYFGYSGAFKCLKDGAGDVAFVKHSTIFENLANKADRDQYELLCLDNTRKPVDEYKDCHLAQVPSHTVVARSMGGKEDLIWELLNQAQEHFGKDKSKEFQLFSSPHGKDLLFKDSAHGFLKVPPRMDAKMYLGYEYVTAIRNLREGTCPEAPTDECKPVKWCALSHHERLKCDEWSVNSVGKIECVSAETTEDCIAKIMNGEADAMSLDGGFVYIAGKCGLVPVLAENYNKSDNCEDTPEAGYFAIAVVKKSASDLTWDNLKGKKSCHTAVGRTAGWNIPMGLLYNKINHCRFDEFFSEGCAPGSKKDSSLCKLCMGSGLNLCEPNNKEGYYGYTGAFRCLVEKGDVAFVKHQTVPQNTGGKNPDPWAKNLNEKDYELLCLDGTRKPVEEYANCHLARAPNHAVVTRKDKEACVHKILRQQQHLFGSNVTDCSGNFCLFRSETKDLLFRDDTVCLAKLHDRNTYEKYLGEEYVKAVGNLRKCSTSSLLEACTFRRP

Test [1] addresses T1, transferrin (UniProt P02787 20-698).
T1 construct: transferrin (serotransferrin), the iron transporter of serum; probably the mature plasma protein; also called Tf; WT-Tf
The experiment in a line: native gel or EMSA; native-polyacrylamide gel electrophoresis, gel shift of the transferrin-CD14 complex; both purified. On the technique in general: Mobility shift assays separate free from complexed probe on a gel.

Test [2] has as its target transferrin (in human PBMCs and primary macrophages) (human (in PBMCs and primary macrophages)) (UniProt P02787). As to the kind of experiment: co-IP; coimmunoprecipitation of transferrin and CD14 in primary macrophages.
The target in test [3] is T1, transferrin. As to the kind of experiment: SPR; BIAcore 2000; transferrin coupled at a CM5 sensor chip, CD14 flowed over; details in the Supplementary Materials (not shown); both purified. In general terms: In SPR one partner is held on a chip, and binding of the other changes the refractive index at the surface.

B1: cluster of differentiation 14 (CD14) (receptor, UniProt P08571 20-345, looked up)
chain: TTPEPCELDDEDFRCVCNFSEPQPDWSEAFQCVSAVEVEIHAGGLNLEPFLKRVDADADPRQYADTVKALRVRRLTVGAAQVPAQLLVGALRVLAYSRLKELTLEDLKITGTMPPLPLEATGLALSSLRLRNVSWATGRSWLAELQQWLKPGLKVLSIAQAHSPAFSCEQVRAFPALTSLDLSDNPGLGERGLMAALCPHKFPAIQNLALRNTGMETPTGVCAALAAAGVQPHSLDLSHNSLRATVNPSAPRCMWSSALNSLNLSFAGLEQVPKGLPAKLRVLDLSCNRLNRAPQPDELPEVDNLTLDGNPFLVPGTALPHEGSMN
notes: CD14, TLR coreceptor; isolated protein used in SPR and native gel; Probably a soluble recombinant CD14; also called WT-CD14; wild-type CD14
Turning to B1, the binding result in test [1] is listed as “binds”.

B2: CD14 (in human PBMCs and primary macrophages) (receptor, UniProt P08571 20-345)
chain: B1 chain
On to B2, for which, in test [2], the binding entry is reported as “binds”.

B3: LPS binding region of CD14 N-terminus (CD14N) (peptide)
peptide: ELDDEDFRCVCNFSEPQPDWSEAFQCVSAVEVEIHAGGLN
In the case of B3, the binding entry in test [3] is given as “binds”.

The values above are taken from PMC10809841, “Transferrin Is Up-Regulated by Microbes and Acts as a Negative Regulator of Immunity to Induce Intestinal Immunotolerance” (Research, 2024).
